In paper PMC8895442:
Results are given in words; binding and its absence hold for the method and conditions named. In cells and extracts the contact can be indirect. Some entries that bind do so weakly or less than the wild type.

Legend:
[1] = target: phosphatase and tensin homolog deleted on chromosome ten (PTEN), endogenous (human (endogenous in SW 1990 and HPAC)) (UniProt P60484); test: co-IP; endogenous immunoprecipitation from SW 1990 and HPAC lysates in RIPA buffer; primary antibody overnight on ice, Protein A beads 3 h at 4 °C; western blot
[2] = target: Flag-PTEN (phosphatase and tensin homolog deleted on chromosome ten) (UniProt P60484); test: co-IP; co-immunoprecipitation in 293T cells (Fig. S2); bait not told

- binding [1]: binds
- binding [2]: binds
B1: ubiquitin-specific peptidase 22 (USP22) (enzyme, UniProt Q9UPT9 1-525)
chain: MVSRPEPEGEAMDAELAVAPPGCSHLGSFKVDNWKQNLRAIYQCFVWSGTAEARKRKAKSCICHVCGVHLNRLHSCLYCVFFGCFTKKHIHEHAKAKRHNLAIDLMYGGIYCFLCQDYIYDKDMEIIAKEEQRKAWKMQGVGEKFSTWEPTKRELELLKHNPKRRKITSNCTIGLRGLINLGNTCFMNCIVQALTHTPLLRDFFLSDRHRCEMQSPSSCLVCEMSSLFQEFYSGHRSPHIPYKLLHLVWTHARHLAGYEQQDAHEFLIAALDVLHRHCKGDDNGKKANNPNHCNCIIDQIFTGGLQSDVTCQVCHGVSTTIDPFWDISLDLPGSSTPFWPLSPGSEGNVVNGESHVSGTTTLTDCLRRFTRPEHLGSSAKIKCSGCHSYQESTKQLTMKKLPIVACFHLKRFEHSAKLRRKITTYVSFPLELDMTPFMASSKESRMNGQYQQPTDSLNNDNKYSLFAVVNHQGTLESGHYTSFIRQHKDQWFKCDDAIITKASIKDVLDSEGYLLFYHKQFLEYE
